Results taken from patent US9845323B2, “2-(1,3,4-oxadiazol-2-yl)-7-oxo-1,6-diazabicyclo[3.2.1 ]octane derivatives and their use as antibacterial agents” (WOCKHARDT LIMITED, priority 2014, dated 2017).
pIC50: −log10 of the molar value. At least one compound was matched to its structure with a doubt left.

The compounds below were run on Class C beta-lactamase CMY/DHA (E. coli M50) (assay: Beta-lactamase enzyme inhibition (Nitrocefin, crude enzyme)). Details: Nitrocefin 100 μM.
Format: biochemical
Procedure: Absorbance was measured at 485 nm by UV-spectrophotometer. The IC50 was calculated by plotting absorbance against concentration through Sigmoidal dose response curve using Graph Pad software.

SMILES	pIC50
O=C1N2C[C@@H](CC[C@H]2c2nnc(C[C@@H]3CCCN3)o2)N1OS(=O)(=O)O [Example 2, (2S,5R)-sulfuric acid mono-[2-(5-(S)-pyrrolidin-2-ylmethyl-[1,3,4]-oxadiazol-2-yl)-7-oxo-1,6-diaza-bicyclo[3.2.1]oct-6-yl] ester]	7.14
O=C1N2C[C@@H](CC[C@H]2c2nnc(CC3CNCCN3)o2)N1OS(=O)(=O)O (stereo partly drawn) [Example 4, (2S,5R)-sulfuric acid mono[2-(5-(RS)-piperazin-2-ylmethyl-[1,3,4]-oxadiazol-2-yl)-7-oxo-1,6-diaza-bicyclo[3.2.1]oct-6-yl] ester]	7.68
O=C1N2C[C@@H](CC[C@H]2c2nnc(CC(c3ccccc3)c3ccccc3)o2)N1OS(=O)(=O)O [Example 9, (2S,5R)-sulfuric acid mono-{2-[5-(2,2-diphenyl-ethyl)-[1,3,4]-oxadiazol-2-yl]-7-oxo-1,6-diaza-bicyclo[3.2.1]oct-6-yl} ester]	9.00
